The results in this text go back to PMC6108117.

By UniProt entry, the sequences of proteins in these tests, tags left out. Residues count along the entry.
UniProt P00750, residues 36-562: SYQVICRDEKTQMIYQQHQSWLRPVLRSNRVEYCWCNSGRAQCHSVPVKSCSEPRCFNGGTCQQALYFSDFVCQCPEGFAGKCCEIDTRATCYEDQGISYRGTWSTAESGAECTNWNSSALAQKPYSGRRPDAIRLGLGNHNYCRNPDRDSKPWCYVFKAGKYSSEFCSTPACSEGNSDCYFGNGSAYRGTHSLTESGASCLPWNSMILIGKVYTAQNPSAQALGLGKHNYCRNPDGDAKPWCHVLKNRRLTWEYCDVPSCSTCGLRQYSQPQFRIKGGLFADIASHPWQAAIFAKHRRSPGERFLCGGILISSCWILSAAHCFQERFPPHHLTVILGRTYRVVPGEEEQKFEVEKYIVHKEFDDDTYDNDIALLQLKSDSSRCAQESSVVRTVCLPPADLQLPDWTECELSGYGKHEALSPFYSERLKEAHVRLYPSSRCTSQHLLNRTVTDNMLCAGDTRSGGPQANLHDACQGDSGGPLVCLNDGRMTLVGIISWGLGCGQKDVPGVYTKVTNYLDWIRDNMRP
UniProt P09429: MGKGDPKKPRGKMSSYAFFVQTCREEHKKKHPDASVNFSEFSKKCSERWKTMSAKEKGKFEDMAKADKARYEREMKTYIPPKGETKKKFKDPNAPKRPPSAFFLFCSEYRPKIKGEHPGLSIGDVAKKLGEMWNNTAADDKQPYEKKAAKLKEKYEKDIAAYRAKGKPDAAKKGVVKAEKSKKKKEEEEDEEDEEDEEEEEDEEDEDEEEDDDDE

Results are given in words; binding and its absence hold for the method and conditions named.

The test deals with Tissue-type plasminogen activator (UniProt P00750). Kind of test: BLI; BLItz system (ForteBio); proteins biotinylated and immobilised on streptavidin-coated biosensor tips, probed with the analytes, dissociation in sample dilution buffer; signals compared with those of an unloaded sensor; which partner was immobilised is not told; both purified. In general terms: Biolayer interferometry detects binding as a change in optical thickness at a sensor tip.

“High-mobility group box 1 (from UniProt P09429 1-215)”: the binding entry is reported as “no binding”.
